Measured data: PubChem BioAssay AID686938 (Drosophila RNAi Screening Center, 2013)
The screen tested about 23,000 reagents; below is a random part of those with a known target gene and a result. Of all reagents, 75 (0.33%) were called active. 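Raw plate signals without normalisation; calls rest on plate z-scores that were not deposited; ratio present for only 364 wells.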 A number with no mark means an inactive call. The record does not give: the dose of the treatment.

Test: 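Looking for CRAC channel components and the factors controlling them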 (primary screen)
Cells: Drosophila S2R+ cells
Reagent: long dsRNA against Drosophila genes, about 0.25 µg dsRNA per well, roughly 10,000 cells
Timing: 5 days of knock-down before the calcium assay
Conditions: thapsigargin (SERCA pump blocker) to empty calcium stores; entry signal taken 4 min after adding it
Measured: 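Duplicate raw fluo-4 intensities per well from a plate reader, at rest and four minutes after thapsigargin emptied calcium stores; entry-to-rest ratio filled for only some wells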
Reading the numbers: calcium entry signal: higher = stronger calcium signal after store depletion; resting calcium signal: higher = higher resting calcium signal
Call rule: 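Hit if the duplicate-averaged plate z-score for entry over resting signal is under −3; wells with weak total dye signal (Fmax z < −2) or more than 5 off-targets removed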
Calls: active = strongly reduced calcium entry; inactive = no strong reduction

The first 2 entries, ahead of the listing:
no.	gene knocked down	DRSC id	calcium entry signal, replicate 1 (fluorescence units)	calcium entry signal, replicate 2 (fluorescence units)	resting calcium signal, replicate 1 (fluorescence units)	resting calcium signal, replicate 2 (fluorescence units)
1	I-3 (GeneID 33068)	DRSC20479	3.90e7	4.65e7	2.00e7	1.98e7
2	DCTN4-p62 (GeneID 35709)	DRSC06101	2.66e7	1.97e7	1.10e7	9.91e6

Main list, from the start:
no.	gene knocked down	DRSC id	calcium entry signal, replicate 1 (fluorescence units)	calcium entry signal, replicate 2 (fluorescence units)	resting calcium signal, replicate 1 (fluorescence units)	resting calcium signal, replicate 2 (fluorescence units)
1	I-3 (GeneID 33068)	DRSC20479	3.90e7	4.65e7	2.00e7	1.98e7
2	DCTN4-p62 (GeneID 35709)	DRSC06101	2.66e7	1.97e7	1.10e7	9.91e6
3	msb1l (GeneID 35254)	DRSC03572	6.10e7		2.74e7	
4	TTLL3B (GeneID 33946)	DRSC02133	2.99e7	2.93e7	1.43e7	1.39e7
5	l(2)efl (GeneID 37744)	DRSC04698	3.71e7		1.97e7	
6	CG40948 (retired record) (GeneID 5740550)	DRSC20944	4.89e7	2.62e7	3.31e7	1.20e7
7	acs (GeneID 38264)	DRSC08185	2.23e7	2.63e7	1.15e7	1.31e7
8	PDZ-GEF (GeneID 33881)	DRSC03231	3.29e7	4.26e7	1.73e7	1.91e7
9	CG5011 (GeneID 50196)	DRSC00674	5.26e7		2.65e7	
10	CG4000 (GeneID 42451)	DRSC15535	4.49e7	4.98e7	6.28e7	2.26e7
11	CG4000 (GeneID 42451)	DRSC21547	4.35e7	3.71e7	2.51e7	1.82e7
12	CG16743 (GeneID 34517)	DRSC02514	4.37e7	5.04e7	2.06e7	2.40e7
13	mRpS9 (GeneID 40932)	DRSC12645	2.69e7	4.12e7	1.16e7	1.68e7
14	mRpS9 (GeneID 40932)	DRSC15456	5.69e7	6.27e7	2.63e7	2.77e7
15	CG12951 (GeneID 41110)	DRSC14579	2.16e7	2.17e7	1.06e7	1.21e7
16	Spf30 (GeneID 7354399)	DRSC11976	2.39e7	3.83e7	1.28e7	1.76e7
17	miple1 (GeneID 38047)	DRSC08722	4.21e7	5.13e7	2.20e7	2.18e7
18	armi (GeneID 38427)	DRSC08193	2.97e7	4.34e7	1.56e7	1.82e7
19	l(2)37Cb (GeneID 35192)	DRSC02095	2.19e7		1.40e7	
20	Elys (GeneID 32971)	DRSC19571	3.04e7	3.20e7	1.59e7	1.49e7
21	Noc3 (GeneID 40870)	DRSC12535	2.85e7	3.35e7	1.49e7	1.67e7
22	Nep2 (GeneID 40588)	DRSC12126	3.29e7	4.20e7	1.49e7	2.52e7
23	Nep2 (GeneID 40588)	DRSC21398	4.15e7	3.61e7	2.26e7	1.65e7
24	CG2113 (GeneID 38356)	DRSC08554	4.25e7	4.09e7	2.26e7	1.98e7
